At least one compound was matched to its structure with a doubt left.
Assay: Pharmacodynamic (PD) study in pigs, effect on food intake
Format: in vivo
Settings: for PD in pig, food intake (% of vehicle) for hours 0-24 / PD in pig, food intake (% of vehicle) for hours 24-48: single s.c. dose 3 nmol/kg, NS = not significantly different from vehicle; for PD in pig, food intake (% of vehicle) for hours 0-24: 0-24 h; for PD in pig, food intake (% of vehicle) for hours 24-48: 24-48 h

Row | SMILES | PD in pig, food intake (% of vehicle) for hours 0-24 | PD in pig, food intake (% of vehicle) for hours 24-48 | reduction in food intake (in words) (single s.c. injection in pigs)
1 | CC[C@H](C)[C@H](NC(=O)[C@H](Cc1ccccc1)NC(=O)[C@H](CCC(=O)O)NC(=O)[C@H](CCCNC(=N)N)NC(=O)[C@H](C)NC(=O)[C@H](C)NC(=O)[C@H](CCC(N)=O)NC(=O)[C@H](CCC(=O)O)NC(=O)[C@H](CCC(=O)O)NC(=O)[C@H](CC(C)C)NC(=O)[C@H](Cc1ccc(O)cc1)NC(=O)[C@H](CO)NC(=O)[C@H](CO)NC(=O)[C@@H](NC(=O)[C@H](CC(=O)O)NC(=O)[C@H](CO)NC(=O)[C@@H](NC(=O)[C@H](Cc1ccccc1)NC(=O)[C@@H](NC(=O)CNC(=O)[C@H](CCC(=O)O)NC(=O)C(C)(C)NC(=O)[C@@H](N)Cc1c[nH]cn1)[C@@H](C)O)[C@@H](C)O)C(C)C)C(=O)N[C@@H](C)C(=O)N[C@@H](Cc1c[nH]c2ccccc12)C(=O)N[C@@H](CC(C)C)C(=O)N[C@H](C(=O)N[C@@H](CCCNC(=N)N)C(=O)NCC(=O)N[C@@H](CCCCNC(=O)COCCOCCNC(=O)COCCOCCNC(=O)COCCOCCNC(=O)CC[C@H](NC(=O)CCCCCCCCCCCCC(=O)O)C(=O)O)C(=O)N[C@@H](CCCCNC(=O)COCCOCCNC(=O)COCCOCCNC(=O)COCCOCCNC(=O)CC[C@H](NC(=O)CCCCCCCCCCCCC(=O)O)C(=O)O)C(=O)O)C(C)C [Example 12] | 15 % of vehicle | 38 % of vehicle | largest reduction in food intake
2 | CC[C@H](C)[C@H](NC(=O)[C@H](Cc1ccccc1)NC(=O)[C@H](CCC(=O)O)NC(=O)[C@H](CCCNC(=N)N)NC(=O)[C@H](C)NC(=O)[C@H](C)NC(=O)[C@H](CCC(N)=O)NC(=O)[C@H](CCC(=O)O)NC(=O)[C@H](CCC(=O)O)NC(=O)[C@H](CC(C)C)NC(=O)[C@H](Cc1ccc(O)cc1)NC(=O)[C@H](CO)NC(=O)[C@H](CO)NC(=O)[C@@H](NC(=O)[C@H](CC(=O)O)NC(=O)[C@H](CO)NC(=O)[C@@H](NC(=O)[C@H](Cc1ccccc1)NC(=O)[C@@H](NC(=O)CNC(=O)[C@H](CCC(=O)O)NC(=O)C(C)(C)NC(=O)[C@@H](N)Cc1c[nH]cn1)[C@@H](C)O)[C@@H](C)O)C(C)C)C(=O)N[C@@H](C)C(=O)N[C@@H](Cc1c[nH]c2ccccc12)C(=O)N[C@@H](CC(C)C)C(=O)N[C@H](C(=O)N[C@@H](CCCNC(=N)N)C(=O)NCC(=O)N[C@@H](CCCCNC(=O)COCCOCCNC(=O)CC[C@H](NC(=O)CC[C@H](NC(=O)CCCCCCCCCCCCC(=O)O)C(=O)O)C(=O)O)C(=O)N[C@@H](CCCCNC(=O)COCCOCCNC(=O)CC[C@H](NC(=O)CC[C@H](NC(=O)CCCCCCCCCCCCC(=O)O)C(=O)O)C(=O)O)C(=O)O)C(C)C [Example 13, N{Epsilon-36}-[2-[2-[2-[[(4S)-4-carboxy-4-[[(4S)-4-carboxy-4-(13-carboxytridecanoylamino)butanoyl]amino]butanoyl]amino]ethoxy]ethoxy]acetyl], N{Epsilon-37}-[2-[2-[2-[[(4S)-4-carboxy-4-[[(4S)-4-carboxy-4-(13-carboxytridecanoylamino)butanoyl]amino]butanoyl]amino]ethoxy]ethoxy]acetyl]-[Aib8,Glu22,Arg26,Arg34,Lys36,Lys37]-GLP-1-(7-37)-peptide] | 54 % of vehicle | 86^NS % of vehicle | 
3 | CC[C@H](C)[C@H](NC(=O)[C@H](Cc1ccccc1)NC(=O)[C@H](CCC(=O)O)NC(=O)[C@H](CCCNC(=N)N)NC(=O)[C@H](C)NC(=O)[C@H](C)NC(=O)[C@H](CCC(N)=O)NC(=O)[C@H](CCC(=O)O)NC(=O)[C@H](CCC(=O)O)NC(=O)[C@H](CC(C)C)NC(=O)[C@H](Cc1ccc(O)cc1)NC(=O)[C@H](CO)NC(=O)[C@H](CO)NC(=O)[C@@H](NC(=O)[C@H](CC(=O)O)NC(=O)[C@H](CO)NC(=O)[C@@H](NC(=O)[C@H](Cc1ccccc1)NC(=O)[C@@H](NC(=O)CNC(=O)[C@H](CCC(=O)O)NC(=O)C(C)(C)NC(=O)[C@@H](N)Cc1c[nH]cn1)[C@@H](C)O)[C@@H](C)O)C(C)C)C(=O)N[C@@H](C)C(=O)N[C@@H](Cc1c[nH]c2ccccc12)C(=O)N[C@@H](CC(C)C)C(=O)N[C@H](C(=O)N[C@@H](CCCNC(=N)N)C(=O)NCC(=O)N[C@@H](CCCCNC(=O)COCCOCCNC(=O)COCCOCCNC(=O)CC[C@H](NC(=O)CCCCCCCCCCCCC(=O)O)C(=O)O)C(=O)N[C@@H](CCCCNC(=O)COCCOCCNC(=O)COCCOCCNC(=O)CC[C@H](NC(=O)CCCCCCCCCCCCC(=O)O)C(=O)O)C(=O)O)C(C)C [Example 5, N{Epsilon-36}-[2-[2-[2-[[2-[2-[2-[[(4S)-4-carboxy-4-(13-carboxytridecanoylamino)butanoyl]amino]ethoxy]ethoxy]acetyl]amino]ethoxy]ethoxy]acetyl], N{Epsilon-37}-[2-[2-[2-[[2-[2-[2-[[(4S)-4-carboxy-4-(13-carboxytridecanoylamino)butanoyl]amino]ethoxy]ethoxy]acetyl]amino]ethoxy]ethoxy]acetyl]-[Aib8,Glu22,Arg26,Arg34,Lys36,Lys37]-GLP-1-(7-37)-peptide] | 58 % of vehicle | 75^NS % of vehicle | 
